# Some of the results follow.
# B1: AT1G77380(17) (Arabidopsis thaliana), Q39134 (protein)
# chain: MVQNHQTVLAVDMPQTGGSKYLDDDGKNKRTGSVWTASAHIITAVIGSGVLSLAWATAQLGWLAGPVVMLLFSAVTYFTSSLLAACYRSGDPISGKRNYTYMDAVRSNLGGVKVTLCGIVQYLNIFGVAIGYTIASAISMMAIKRSNCFHKSGGKDPCHMNSNPYMIAFGLVQILFSQIPDFDQLWWLSILAAVMSFTYSSAGLALGIAQVVVNGKVKGSLTGISIGAVTETQKIWRTFQALGDIAFAYSYSIILIEIQDTVKSPPSEEKTMKKATLVSVSVTTMFYMLCGCMGYAAFGDLSPGNLLTGFGFYNPYWLLDIANAAIVIHLIGAYQVYCQPLFAFIEKQASIQFPDSEFIAKDIKIPIPGFKPLRLNVFRLIWRTVFVIITTVISMLLPFFNDVVGLLGALGFWPLTVYFPVEMYIAQKKIPRWSTRWVCLQVFSLGCLVVSIAAAAGSIAGVLLDLKSYKPFRSEY
# Experiments:
# Assay in all cases: glycan array binding signal (z-score within array); higher = stronger binding
# Settings in all cases: glycan notation: IUPAC condensed, linker removed
# [1] = target: GlcNAc(b1-3)Gal(b1-3)GalNAc
# Method in brief: (§1)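 The binding signal is a Z-score computed within each array. Data were drawn from 3228 arrays in the Consortium for Functional Glycomics database, restricted to those with a known protein sequence. Scores were averaged over arrays of the same protein sequence at different concentrations or buffers, and over linkers, and negative values can be taken as non-binding.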
# GlcNAc(b1-3)Gal(b1-4)Glc = target: GlcNAc(b1-3)Gal(b1-4)Glc
# Method in brief: as §1
# [2] = target: GlcNAc(b1-3)Gal(b1-4)GlcNAc
# Method in brief: as §1
# [3] = target: GlcNAc(b1-3)Gal(b1-4)GlcNAc(b1-2)Man(a1-3)[GlcNAc(b1-3)Gal(b1-4)GlcNAc(b1-2)Man(a1-6)]Man(b1-4)GlcNAc(b1-4)GlcNAc
# Method in brief: as §1
# [4] = target: GlcNAc(b1-3)Gal(b1-4)GlcNAc(b1-2)Man(a1-3)[GlcNAc(b1-3)Gal(b1-4)GlcNAc(b1-2)Man(a1-6)]Man(b1-4)GlcNAc(b1-4)[Fuc(a1-6)]GlcNAc
# Method in brief: as §1
# [5] = target: GlcNAc(b1-3)Gal(b1-4)GlcNAc(b1-2)[GlcNAc(b1-3)Gal(b1-4)GlcNAc(b1-6)]Man(a1-6)[GlcNAc(b1-3)Gal(b1-4)GlcNAc(b1-2)Man(a1-3)]Man(b1-4)GlcNAc(b1-4)GlcNAc
# Method in brief: as §1
# [6] = target: GlcNAc(b1-3)Gal(b1-4)GlcNAc(b1-3)Gal(b1-4)GlcNAc
# Method in brief: as §1
# [7] = target: GlcNAc(b1-3)Gal(b1-4)GlcNAc(b1-3)Gal(b1-4)GlcNAc(b1-2)Man(a1-3)[GlcNAc(b1-3)Gal(b1-4)GlcNAc(b1-3)Gal(b1-4)GlcNAc(b1-2)Man(a1-6)]Man(b1-4)GlcNAc(b1-4)GlcNAc
# Method in brief: as §1
# [8] = target: GlcNAc(b1-3)Gal(b1-4)GlcNAc(b1-3)Gal(b1-4)GlcNAc(b1-2)Man(a1-3)[GlcNAc(b1-3)Gal(b1-4)GlcNAc(b1-3)Gal(b1-4)GlcNAc(b1-2)Man(a1-6)]Man(b1-4)GlcNAc(b1-4)[Fuc(a1-6)]GlcNAc
# Method in brief: as §1
# [9] = target: GlcNAc(b1-3)Gal(b1-4)GlcNAc(b1-3)Gal(b1-4)GlcNAc(b1-2)[GlcNAc(b1-3)Gal(b1-4)GlcNAc(b1-3)Gal(b1-4)GlcNAc(b1-6)]Man(a1-6)[GlcNAc(b1-3)Gal(b1-4)GlcNAc(b1-3)Gal(b1-4)GlcNAc(b1-2)Man(a1-3)]Man(b1-4)GlcNAc(b1-4)[Fuc(a1-6)]GlcNAc
# Method in brief: as §1
# [10] = target: GlcNAc(b1-3)Gal(b1-4)GlcNAc(b1-3)Gal(b1-4)GlcNAc(b1-3)Gal(b1-4)GlcNAc(b1-2)Man(a1-3)[GlcNAc(b1-3)Gal(b1-4)GlcNAc(b1-3)Gal(b1-4)GlcNAc(b1-3)Gal(b1-4)GlcNAc(b1-2)Man(a1-6)]Man(b1-4)GlcNAc(b1-4)GlcNAc
# Method in brief: as §1
# [11] = target: GlcNAc(b1-3)Gal(b1-4)GlcNAc(b1-3)Gal(b1-4)GlcNAc(b1-3)Gal(b1-4)GlcNAc(b1-2)Man(a1-3)[GlcNAc(b1-3)Gal(b1-4)GlcNAc(b1-3)Gal(b1-4)GlcNAc(b1-3)Gal(b1-4)GlcNAc(b1-2)Man(a1-6)]Man(b1-4)GlcNAc(b1-4)[Fuc(a1-6)]GlcNAc
# Method in brief: as §1
# [12] = target: GlcNAc(b1-3)Gal(b1-4)GlcNAc(b1-3)Gal(b1-4)GlcNAc(b1-3)Gal(b1-4)GlcNAc(b1-2)[GlcNAc(b1-3)Gal(b1-4)GlcNAc(b1-3)Gal(b1-4)GlcNAc(b1-3)Gal(b1-4)GlcNAc(b1-6)]Man(a1-6)[GlcNAc(b1-3)Gal(b1-4)GlcNAc(b1-3)Gal(b1-4)GlcNAc(b1-3)Gal(b1-4)GlcNAc(b1-2)Man(a1-3)]Man(b1-4)GlcNAc(b1-4)[Fuc(a1-6)]GlcNAc
# Method in brief: as §1
# [13] = target: GlcNAc(b1-3)Gal(b1-4)GlcNAc(b1-3)Gal(b1-4)GlcNAc(b1-3)Gal(b1-4)GlcNAc(b1-3)Gal(b1-4)GlcNAc(b1-2)Man(a1-3)[GlcNAc(b1-3)Gal(b1-4)GlcNAc(b1-3)Gal(b1-4)GlcNAc(b1-3)Gal(b1-4)GlcNAc(b1-3)Gal(b1-4)GlcNAc(b1-2)Man(a1-6)]Man(b1-4)GlcNAc(b1-4)GlcNAc
# Method in brief: as §1
# [14] = target: GlcNAc(b1-3)Gal(b1-4)GlcNAc(b1-3)Gal(b1-4)GlcNAc(b1-3)Gal(b1-4)GlcNAc(b1-3)Gal(b1-4)GlcNAc(b1-2)Man(a1-3)[GlcNAc(b1-3)Gal(b1-4)GlcNAc(b1-3)Gal(b1-4)GlcNAc(b1-3)Gal(b1-4)GlcNAc(b1-3)Gal(b1-4)GlcNAc(b1-2)Man(a1-6)]Man(b1-4)GlcNAc(b1-4)[Fuc(a1-6)]GlcNAc
# Method in brief: as §1
# [15] = target: GlcNAc(b1-3)Gal(b1-4)GlcNAc(b1-3)Gal(b1-4)GlcNAc(b1-3)Gal(b1-4)GlcNAc(b1-3)Gal(b1-4)GlcNAc(b1-2)[GlcNAc(b1-3)Gal(b1-4)GlcNAc(b1-3)Gal(b1-4)GlcNAc(b1-3)Gal(b1-4)GlcNAc(b1-3)Gal(b1-4)GlcNAc(b1-6)]Man(a1-6)[GlcNAc(b1-3)Gal(b1-4)GlcNAc(b1-3)Gal(b1-4)GlcNAc(b1-3)Gal(b1-4)GlcNAc(b1-3)Gal(b1-4)GlcNAc(b1-2)Man(a1-3)]Man(b1-4)GlcNAc(b1-4)[Fuc(a1-6)]GlcNAc
# Method in brief: as §1
# [16] = target: GlcNAc(b1-3)Gal(b1-4)GlcNAc(b1-3)Gal(b1-4)GlcNAc(b1-3)GalNAc
# Method in brief: as §1
# [17] = target: GlcNAc(b1-3)Gal(b1-4)GlcNAc(b1-3)GalNAc
# Method in brief: as §1
# [18] = target: GlcNAc(b1-3)Gal(b1-4)GlcNAc(b1-3)[GlcNAc(b1-3)Gal(b1-4)GlcNAc(b1-3)]GalNAc
# Method in brief: as §1
# [19] = target: GlcNAc(b1-3)Gal(b1-4)GlcNAc(b1-6)[Gal(b1-3)]GalNAc
# Method in brief: as §1
# [20] = target: GlcNAc(b1-3)Gal(b1-4)GlcNAc(b1-6)[GlcNAc(b1-3)Gal(b1-3)]GalNAc
# Method in brief: as §1
# [21] = target: GlcNAc(b1-3)Gal(b1-4)GlcNAc(b1-6)[GlcNAc(b1-3)]Gal(b1-4)GlcNAc
# Method in brief: as §1
# GlcNAc(b1-3)GalNAc = target: GlcNAc(b1-3)GalNAc
# Method in brief: as §1
# GlcNAc(b1-3)Man = target: GlcNAc(b1-3)Man
# Method in brief: as §1
# [22] = target: GlcNAc(b1-3)[GlcNAc(b1-4)][GlcNAc(b1-6)]GlcNAc
# Method in brief: as §1
# [23] = target: GlcNAc(b1-3)[GlcNAc(b1-6)]Gal(b1-4)GlcNAc
# Method in brief: as §1
# [24] = target: GlcNAc(b1-3)[GlcNAc(b1-6)]GalNAc
# Method in brief: as §1
# [25] = target: GlcNAc(b1-4)Gal(b1-4)GlcNAc
# Method in brief: as §1
# GlcNAc(b1-4)GlcNAc = target: GlcNAc(b1-4)GlcNAc
# Method in brief: as §1
# [26] = target: GlcNAc(b1-4)GlcNAc(b1-4)GlcNAc
# Method in brief: as §1
# [27] = target: GlcNAc(b1-4)GlcNAc(b1-4)GlcNAc(b1-4)GlcNAc(b1-4)GlcNAc
# Method in brief: as §1
# [28] = target: GlcNAc(b1-4)GlcNAc(b1-4)GlcNAc(b1-4)GlcNAc(b1-4)GlcNAc(b1-4)GlcNAc
# Method in brief: as §1
# [29] = target: GlcNAc(b1-4)[GlcNAc(b1-6)]GalNAc
# Method in brief: as §1
# [30] = target: GlcNAc(b1-6)Gal(b1-4)GlcNAc
# Method in brief: as §1
# GlcNAc(b1-6)GalNAc = target: GlcNAc(b1-6)GalNAc
# Method in brief: as §1
# [31] = target: GlcNAc6S(b1-3)Gal(b1-4)GlcNAc
# Method in brief: as §1
# Kdn(a2-3)Gal(b1-3)GalNAc = target: Kdn(a2-3)Gal(b1-3)GalNAc
# Method in brief: as §1
binder,measurement,setting,value
B1,glycan array binding signal (z-score),[1],-0.035
same,glycan array binding signal (z-score),GlcNAc(b1-3)Gal(b1-4)Glc,-0.394
same,glycan array binding signal (z-score),[2],1.08
same,glycan array binding signal (z-score),[3],-0.699
same,glycan array binding signal (z-score),[4],1.74
same,glycan array binding signal (z-score),[5],0.57
same,glycan array binding signal (z-score),[6],0.745
same,glycan array binding signal (z-score),[7],-0.439
same,glycan array binding signal (z-score),[8],0.853
same,glycan array binding signal (z-score),[9],0.854
same,glycan array binding signal (z-score),[10],-0.612
same,glycan array binding signal (z-score),[11],0.989
same,glycan array binding signal (z-score),[12],1.21
same,glycan array binding signal (z-score),[13],-0.46
same,glycan array binding signal (z-score),[14],-0.413
same,glycan array binding signal (z-score),[15],-0.237
same,glycan array binding signal (z-score),[16],-0.766
same,glycan array binding signal (z-score),[17],-0.747
same,glycan array binding signal (z-score),[18],-0.801
same,glycan array binding signal (z-score),[19],-0.67
same,glycan array binding signal (z-score),[20],-0.352
same,glycan array binding signal (z-score),[21],2.23
same,glycan array binding signal (z-score),GlcNAc(b1-3)GalNAc,-0.766
same,glycan array binding signal (z-score),GlcNAc(b1-3)Man,1.58
same,glycan array binding signal (z-score),[22],2.47
same,glycan array binding signal (z-score),[23],0.495
same,glycan array binding signal (z-score),[24],0.803
same,glycan array binding signal (z-score),[25],0.6
same,glycan array binding signal (z-score),GlcNAc(b1-4)GlcNAc,0.009
same,glycan array binding signal (z-score),[26],0.38
same,glycan array binding signal (z-score),[27],0.469
same,glycan array binding signal (z-score),[28],0.585
same,glycan array binding signal (z-score),[29],0.256
same,glycan array binding signal (z-score),[30],-0.55
same,glycan array binding signal (z-score),GlcNAc(b1-6)GalNAc,2.85
same,glycan array binding signal (z-score),[31],-0.347
same,glycan array binding signal (z-score),Kdn(a2-3)Gal(b1-3)GalNAc,-0.657

# Copied from the entries so far for reference:
binder,measurement,setting,value
B1,glycan array binding signal (z-score),[19],-0.67
same,glycan array binding signal (z-score),[20],-0.352
same,glycan array binding signal (z-score),[21],2.23
same,glycan array binding signal (z-score),GlcNAc(b1-3)GalNAc,-0.766
same,glycan array binding signal (z-score),GlcNAc(b1-3)Man,1.58
same,glycan array binding signal (z-score),[22],2.47
same,glycan array binding signal (z-score),[23],0.495
same,glycan array binding signal (z-score),[24],0.803
same,glycan array binding signal (z-score),[25],0.6
same,glycan array binding signal (z-score),GlcNAc(b1-4)GlcNAc,0.009

# — the supplement of paper PMC8728848
